Results: PubChem BioAssay AID588590 (National Center for Advancing Translational Sciences (NCATS), 2011)
Out of some 390,000 compounds screened, about 4,000 (1%) were called active. Inconclusive results, whose numbers are uncertain, are shown with a selection of clear calls. The call rests on the fitted dose curve; in most records, active means well fitted inhibition curve with a large enough effect; inconclusive means small, poorly fitted or top-dose-only effect, or another doubt; inactive means no such curve, though single readings can be large or run the other way. Potencies beside an inconclusive call are fits to weak or partial responses and may not hold up.

Protein sequences, listed by entry. Tags and fused reporters are not part of them. Lines headed by an entry give the natural chain unless they say otherwise; changes in a name come on top.
UniProt Q9UNA4: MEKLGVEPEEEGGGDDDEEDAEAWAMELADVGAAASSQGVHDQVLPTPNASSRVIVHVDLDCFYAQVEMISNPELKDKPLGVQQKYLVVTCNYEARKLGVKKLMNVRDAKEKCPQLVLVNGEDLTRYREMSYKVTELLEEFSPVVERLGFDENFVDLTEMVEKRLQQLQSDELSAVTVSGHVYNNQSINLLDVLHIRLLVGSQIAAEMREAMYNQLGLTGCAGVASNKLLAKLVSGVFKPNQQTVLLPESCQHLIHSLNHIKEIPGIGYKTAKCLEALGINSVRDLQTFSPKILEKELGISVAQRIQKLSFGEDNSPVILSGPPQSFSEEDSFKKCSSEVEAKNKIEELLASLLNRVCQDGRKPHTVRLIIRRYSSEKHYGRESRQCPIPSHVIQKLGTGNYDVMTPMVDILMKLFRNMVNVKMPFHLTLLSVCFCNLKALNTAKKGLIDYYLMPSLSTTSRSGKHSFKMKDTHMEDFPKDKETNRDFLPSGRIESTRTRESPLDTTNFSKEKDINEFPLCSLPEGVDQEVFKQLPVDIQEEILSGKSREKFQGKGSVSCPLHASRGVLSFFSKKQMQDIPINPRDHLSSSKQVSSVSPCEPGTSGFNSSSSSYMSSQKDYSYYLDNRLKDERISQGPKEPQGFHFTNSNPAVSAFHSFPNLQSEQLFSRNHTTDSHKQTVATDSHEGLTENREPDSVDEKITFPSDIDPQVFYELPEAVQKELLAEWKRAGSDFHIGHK

What follows are compounds tested against DNA polymerase iota (Homo sapiens) (UniProt Q9UNA4) (assay: qHTS for Inhibitors of Polymerase Iota). Details: Pol iota fluorescent replication assay, 10 min; series mostly up to 115 µM.
How it was run: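 Pol iota at 10 nM preincubated 15 min with compounds at room temperature; reaction started with fluorescent substrate, 50 nM final. Fluorescence read kinetically at 0 and 10 min; buffer-only wells as negative control.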
Potency means the concentration at half of the fitted maximal effect.

Potency, inconclusive:
CN(C)[C@@H]1C(=O)C(C(N)=O)=C(O)[C@@]2(O)C(=O)C3=C(O)c4c(O)ccc(Cl)c4[C@@H](O)[C@H]3C[C@@H]12 39.8 µM [inhibitor, partial curve, poor fit], CCN(CC)c1ccc(C=Nc2ccccc2)c(O)c1 11.2 µM [inhibitor, partial curve, poor fit], O=C1CCn2c1c(O)c1ccccc1c2=O 56.2 µM [inhibitor, partial curve, poor fit], CC(=O)N1CCCc2cc(S(=O)(=O)CCC(=O)N3CCN(c4ccccc4)CC3)ccc21 89.1 µM [inhibitor, single point], COc1ccc(-n2nnnc2S(=O)(=O)CC(=O)N2CCCCC2)cc1 17.8 µM [inhibitor, partial curve, poor fit], [O-][n+]1c2ccccc2c2n1CCCN=C2c1ccc(Cl)cc1 39.8 µM [inhibitor, single point], Cc1ccc2c(=O)c(C(=O)c3cccc(Cl)c3)cn(CC(=O)Nc3ccc4c(c3)OCCO4)c2n1 89.1 µM [inhibitor, partial curve, poor fit], C=CCn1c(=O)c2ccccc2n2c(SCc3nc(N)nc(Nc4ccccc4C)n3)nnc12 79.4 µM [inhibitor, partial curve, poor fit], CC(=O)c1c(N2CCN(C)CC2)[nH]c(-c2ccccc2)nc1=S 11.2 µM [inhibitor, partial curve, poor fit], O=C(C[n+]1cc(-c2ccc(Cl)cc2)n2c1CCC2)Nc1nc(-c2ccccc2)cs1 12.6 µM [inhibitor, partial curve, poor fit], COc1cccc(NC(=O)c2c(C)cc(C)cc2CC(C)(C)C(=O)O)c1 89.1 µM [inhibitor, single point], Cc1ccccc1C(=O)OCc1cc(=O)n2nc(-c3cccs3)sc2n1 89.1 µM [inhibitor, partial curve], CC(NC(=O)CCCCCNC(=O)N1CCn2c1nc1ccccc12)c1ccccc1 (centres undefined) 100 µM [inhibitor, single point], CC1=C(C(=O)Nc2ccccc2)C(c2cccs2)n2nc(SCc3ccccc3F)nc2N1 (centres undefined) 44.7 µM [inhibitor, partial curve, poor fit], Cc1nc2c(cc1C(=O)N/N=C/c1ccc(O)c(O)c1)c(=O)n(C)c(=O)n2C 112 µM [inhibitor, partial curve, poor fit], Cn1c(=N)n(CC(=O)c2ccc(Cl)c(Cl)c2)c2ccccc21 44.7 µM [inhibitor, partial curve, poor fit], O=C(O)c1ccc(Nc2nc3ccccc3nc2NS(=O)(=O)c2cccs2)cc1 89.1 µM [inhibitor, partial curve, poor fit], O=C(CC1CCCCC1)N1CCCC(c2nc(-c3ccc(S(=O)(=O)N4CCCC4)cc3)no2)C1 (centres undefined) 15.8 µM [inhibitor, full curve], O=C1CC(c2ccc(Cl)cc2)n2nc(N3C(=O)CCC3=O)nc2N1 (centres undefined) 56.2 µM [inhibitor, partial curve, poor fit], O=C(Nc1ccccc1)NC1(C(=O)NCc2cccs2)CCCCC1 89.1 µM [inhibitor, partial curve, poor fit], CCOc1cc(C(c2c(O)nc(SC)[nH]c2=O)c2c(O)nc(SC)[nH]c2=O)ccc1O 28.2 µM [inhibitor, single point], S=c1[nH]nc(CSc2nc3ccccc3s2)o1 11.2 µM [inhibitor, partial curve, poor fit], CCN(CC)C(=O)N1CCN(/[N+]([O-])=N/Oc2ccc([N+](=O)[O-])cc2[N+](=O)[O-])CC1 28.2 µM [inhibitor, single point], N=C1/C(=C\c2coc3ccc(O)cc3c2=O)C(=O)N=C2SC=CN12 2.51 µM [inhibitor, full curve, poor fit], COc1ccc(CCN2CC(C(=O)NCc3ccc(F)cc3)CC2=O)cc1OC (centres undefined) 20 µM [inhibitor, partial curve, poor fit], Cc1cc(SCC(=O)NC(=O)NCc2ccco2)nc2ccccc12 10 µM [inhibitor, full curve, poor fit], CCCOc1ccc(C2C3=C(Nc4nc(N)[nH]c(=O)c42)c2ccccc2C3=O)cc1 (centres undefined) 56.2 µM [inhibitor, partial curve, poor fit], O=C(N/N=C/c1ccccn1)c1cccc(S(=O)(=O)N2CCCC2)c1 15.8 µM [inhibitor, partial curve, poor fit], c1cc2c(cc1C1=NNC(=NC3CC3)SC1)OCCO2 28.2 µM [inhibitor, single point]

Potency, inactive:
CCc1sc(Nc2cccc(C)c2C)nc1-c1cc2cccc(OC)c2oc1=O, Cc1cccc(C(=O)Oc2ccc3ccc(O)cc3c2)c1, Cc1ccc(C(=O)CC2(O)C(=O)Nc3ccccc32)s1 (centres undefined), CCOC(=O)c1ccccc1NC(=O)N1CCC(CN2CCCCC2)CC1, Cc1ccc(C)c(NC(=O)c2cc(S(=O)(=O)N3CCCCCC3)ccc2F)c1, CCC(C)NC(=O)c1nn(-c2ccc(C)cc2)c(=O)n(C)c1=O (centres undefined), O=C(Cc1cccs1)N/N=C/c1ccco1, O=C(Nc1ncccc1O)C1CCN(S(=O)(=O)c2ccc3ccccc3c2)CC1, Cc1ccc(C)c(OC(=O)CSc2nnc(CNC(=O)c3ccccc3)o2)c1

Potency, active:
Cc1ccc(SCc2cc(=O)c3c(=O)n(-c4ccccc4)[nH]c3[nH]2)cc1 22.4 µM
